At least one structure is not confirmed: it was looked up by name or label, or the drawing left a doubt.
Tested on: Eryngium glaciale valencene synthase (EgVS), wild type, SEQ ID NO:1, C-terminally His-tagged
Assay: Steady state kinetic analysis of E. glaciale valencene synthase EgVS (GC/MS-SIM detection)
Format: biochemical
Conditions: 50 nM EgVS, 50 mM Bis-Tris Propane (pH 7.5), 20 mM MgCl2, 50 mM KCl, 30C

**Q.** `CC(C)=CCC/C(C)=C/CC/C(C)=C/CO[P@@](=O)(O)OP(=O)(O)O` (stereo in doubt) [FPP, farnesyl diphosphate] was tested. Which Km (read-out: Km, FPP) did it give?
**A.** 21.4 ± 10.5 µM

**Q.** What about the Vmax (substrate FPP) of the same compound?
**A.** 376 ± 57 μmol (g protein)^−1 min^−1

**Q.** And the kcat (substrate FPP)?
**A.** 0.42 ± 0.0633 s⁻¹
